In the supplement of paper PMC5949888 one finds growth estimate data, which are given here for 80 substances.

Most values lie at the floor of the assay. Slopes are relative: functional sequences can read slightly below zero.

For the series, the system named is Saccharomyces cerevisiae PS128 hsf1 delta, HSF1(1-493) fusion. The experiment in a line: growth estimate (transactivation domain function in HSF1 fusion, heat-shock survival) (a.u. (slope of normalised read count over time)); higher = stronger growth at 37°C, i.e. more transactivation activity. Particulars: library: random library.
As for VGNGRGGYSLPVES, the growth estimate is less than -0.25.

ICTT: the growth estimate was less than -0.25.

Take EWGQLEHFLWH: the growth estimate was less than -0.25.

In the case of MWWQVSESS, the growth estimate was less than -0.25.

Turning to HGR, the growth estimate is less than -0.25.

DVLCRQRLQ: the growth estimate is less than -0.25.

For the substance EGSDNSVVYISSLRP, the growth estimate was less than -0.25.

On to KGVSRPVASTTLPGGKRHFA, for which the growth estimate is less than -0.25.

LDACVDETPIGLVSHAVSIV: the growth estimate is -0.246.

For ARTGLHVQFTAPVSNEPWCF, the growth estimate is less than -0.25.

As for RFELLSP, the growth estimate is less than -0.25.

Take RFNRSRGGYQNGGPCL: the growth estimate was less than -0.25.

For RGGCLRWSDHRHSYVKDFQR, the growth estimate is less than -0.25.

Regarding ASFR, the growth estimate was less than -0.25.

With PPPDLQIYFYSTSRLHNL, the growth estimate was less than -0.25.

Take GHSLSCTKRA: the growth estimate was less than -0.25.

For THGDLTMRQ, the growth estimate is less than -0.25.

For the substance SDG, the growth estimate is less than -0.25.

In the case of VNGVGTMVSSACPGNVPTGQ, the growth estimate was -0.25.

Consider YRGYRR, for which the growth estimate is less than -0.25.

IRRKDSIPTGGSDQHGPPRK: the growth estimate is less than -0.25.

Regarding ILCVVIQTTPFGRQ, the growth estimate was less than -0.25.

Regarding GCIRSEGDPLGSANCGRVLA, the growth estimate is less than -0.25.

With FNTSGPLSSLWSL, the growth estimate is -0.236.

Turning to DWPDSL, the growth estimate is less than -0.25.

WLGVSAPGEVHILTGEMSRR: the growth estimate was less than -0.25.

AAYV: the growth estimate was less than -0.25.

Regarding HNFDWAVERPHRPLKLEDAL, the growth estimate was less than -0.25.

In the case of AILSLSVRGSGVRTPNEP, the growth estimate was -0.243.

Take LTCITPGWHRGCNR: the growth estimate is less than -0.25.

Consider TDLLRRNLVQSKVRGHG, for which the growth estimate was less than -0.25.

For the substance TERVALFALACMSLDHHVLR, the growth estimate is less than -0.25.

As for LETFFIVAPVSHPTLR, the growth estimate is less than -0.25.

IGIWCFLIGNKHMRL: the growth estimate was less than -0.25.

Regarding IVIAAGLLRT, the growth estimate is less than -0.25.

Regarding GLPLGLAALWQGQGYQGPWH, the growth estimate is less than -0.25.

Consider YLTTVWPKSRSTSRGGVE, for which the growth estimate is less than -0.25.

Take QVEKCLVQQFFWNR: the growth estimate was less than -0.25.

With TILTREEGDLKF, the growth estimate is less than -0.25.

With ACIRRNGSGGVESGDTHDNP, the growth estimate is less than -0.25.

For LDRGSVTGPGFFVLNQGSRI, the growth estimate is less than -0.25.

Turning to ENLLGLIVGHRIR, the growth estimate was less than -0.25.

Take GAPNTLSRSMCIRGFIDPLN: the growth estimate was less than -0.25.

Take LGTGCLTGKEASKGYASRLA: the growth estimate was -0.246.

For the substance KRDGRQEVAVWEGSGLGGRT, the growth estimate is less than -0.25.

For VASGW, the growth estimate was -0.241.

As for YVHWASLYGD, the growth estimate is 0.0839.

WLVRIRGWAV: the growth estimate is less than -0.25.

Turning to SYVYWVRSFEFQ, the growth estimate was less than -0.25.

In the case of WQLRGAFVFP, the growth estimate is less than -0.25.

In the case of EGASCT, the growth estimate was less than -0.25.

RCLLIDKSH: the growth estimate is less than -0.25.

Consider LAEILVECIAGGWTCRFAYK, for which the growth estimate was less than -0.25.

On to AVVCIDGVILL, for which the growth estimate was less than -0.25.

Turning to EVLD, the growth estimate is less than -0.25.

Take WERCTS: the growth estimate is less than -0.25.

In the case of VGFGSQFGRQFGTAPGTHEL, the growth estimate was less than -0.25.

NVLTRNALAIFMGLVTCISI: the growth estimate was less than -0.25.

Regarding LTNIGGPTETD, the growth estimate was less than -0.25.

QDVRETQLARAM: the growth estimate is less than -0.25.

For PSYL, the growth estimate is less than -0.25.

As for GYDHWVIGGGIYQFALRKPA, the growth estimate is less than -0.25.

As to VLILQVKR, the growth estimate was less than -0.25.

Consider VVARRPFMTRLGVFNCERPR, for which the growth estimate was 0.525.

On to EGPTRI, for which the growth estimate is less than -0.25.

For WKQVHPTVLEGRVTTYVDEG, the growth estimate was less than -0.25.

For SCDL, the growth estimate was less than -0.25.

In the case of IWS, the growth estimate is less than -0.25.

In the case of LQYKV, the growth estimate was less than -0.25.

WLQKSLK: the growth estimate is less than -0.25.

Take AIIVFINRNYRSSRFADTTP: the growth estimate was less than -0.25.

FSRVEDAHYAAPYRT: the growth estimate was less than -0.25.

RCLV: the growth estimate is less than -0.25.

With GRCSLERTTDWGCR, the growth estimate was less than -0.25.

As for AEEPSVRHKRITSVNTTV, the growth estimate is less than -0.25.

With TITKPVRLMYRTGSDVHI, the growth estimate was less than -0.25.

In the case of GWSR, the growth estimate is less than -0.25.

For FRLFLSGLTRDKYRNVRISR, the growth estimate was less than -0.25.

Take IAIYS: the growth estimate is less than -0.25.

As for GACEVGSEQILGTPGCAKEP, the growth estimate was less than -0.25.
